From patent US20240101692A1

Target: Flag-ACRP-mAPRIL A88 (mouse)
Experiment: Flag-ACRP-mAPRIL A88 preincubated with antibody, flow cytometry on HEK 293 wild-type cells

binding: binds
B1: 104 (antibody, V domains shown)
VH: EFQLQQSGPELVKPGASVKISCKASGYSFTDYNMSWVKQSNGKSLEWIGIISPYYGTTTYNQNFKGKATLTVDQSSSTAYMHLNSLTSEDSAVYYCARNYGGNLDYYSMDYWGQGTSVTVSS
VL: SIVMTQTPNFLLVSAGDRVTMTCKASQTVSNDVGWYQQKPGQSPKLLIYYASNRYTGVPDRFTGSGYGTDFTFTITTVQAEDLAVYFCQQDSSFPLTFGAGTKLELK

Results are given in words; binding and its absence hold for the method and conditions named. A result given as binding can be weak or reduced; the word gives no strength.
